In PubChem BioAssay AID1508600 (Functional Genomics Laboratory (NCATS/FGL), 2020) one finds z-score data, which are given here for 69 sequences.

Out of some 53,000 sequences screened, about 3,700 (7%) were called active.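 How the source made its calls: active means gene knockdowns whose robust z-score for IL-1 alpha signal is at least 2 or at most -2, so actives lie on both sides; inactive means the rest.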 Some of the results follow.

A short description of the assay: Components of the Cytosolic LPS Sensing Pathway: Gene Identification via Genome-wide siRNA Screen.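 Further: robust z of the log signal after scaling to non-targeting control siRNA wells of the plate.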 To be noted: RAW264.7 macrophages, IL-1a HTRF, actives lie on both sides, screened at 100 nM (by protocol), cells primed 5 h with Pam3CSK4 first. The procedure, abridged:
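Read-out: IL-1a HTRF on supernatant, divided by plate negative-control median ×100, log-transformed and converted to robust z-score. Cells were RAW264.7 given 100 nM siRNA, Pam3CSK4-primed 5 hours, then LipidA-transfected 24 hour.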
(In general: TR-FRET usually uses a lanthanide donor and a delayed reading to cut background.)
Consider GCUAGAGAAGCUAGAAAAGTT against Ccdc12, for which the z-score was inactive: -1.1.

GCCUGAACAUCAAGAUCCUTT against Bpifb5: the z-score is inactive: 0.852.

Consider GGAGACAGAAACUUAACCUTT against Gns, for which the z-score was inactive: -1.24.

In the case of GGAAGGAGGAAAAGUAGGUTT against Peli1, the z-score was inactive: -0.00852.

As for AGGCGGUUUUUUGUCUAUGTT against Serpina1e, the z-score is inactive: 0.00845.

As for GGAUCCCUGUAAUAUGGCATT against Spag8, the z-score is inactive: 0.846.

For the sequence GGGCCAUUUCAUGUUAAUUTT against Nit2, the z-score is inactive: 0.674.

For GGUGAUUCAACUCACUUGUTT against Olfr1353, the z-score is inactive: -1.33.

As to GGCUGUGCUGAUCACCUACTT against Mettl26, the z-score is inactive: -0.0718.

GCCACUAUCUGGAUAAGGATT against Ftl1: the z-score was active: -3.54.

As to GGAUGCUGAAGUGAAGGACTT against Myt1, the z-score is inactive: -0.157.

For the sequence GCCCGCCUACUUUGAAGAATT against Slc17a7, the z-score is inactive: 0.989.

For CCUUUGCCUUCAGUUUUAUTT against Pramel20, the z-score was inactive: 0.864.

Turning to GGGCCUUGUUUUAGGAAUUTT against Lap3, the z-score was active: 2.2.

On to CAGGCCUGAACUUUUUAUUTT against Olfr533, for which the z-score was inactive: -0.162.

With GCGAGAGUUCAAUGCGUUUTT against Pwp2, the z-score is inactive: 1.64.

Consider GGAGAAAUUCGACUGAAAATT against Pcdhb13, for which the z-score was active: 3.47.

Regarding GCAGGAUAUGUAAAGGUUUTT against Gimap3, the z-score was inactive: -0.924.

For the sequence GCUCAAUCUCUCUGAGACCTT against Vax1, the z-score was inactive: -0.0748.

For GGCAGGGAGCUUCUAGACUTT against Kiss1, the z-score is inactive: -0.936.

As to GGAGACCAAAAUUUCUUGGTT against Sox9, the z-score was inactive: 0.0192.

As for CCUAUUGUGAGCUUAAUGCTT against Nrxn2, the z-score is inactive: -0.74.

Turning to GGACUUUAAAUGCAAUAUCTT against Trps1, the z-score is inactive: -0.567.

As for GCCACUCGUAUGAACAUCUTT against Ado, the z-score was inactive: -0.0506.

Regarding GGAAGGUAAAAUUGAGAUCTT against Trpv2, the z-score was inactive: -0.364.

Take GGACGGACAUUUAUGACCCTT against Cpsf3: the z-score was inactive: -0.163.

With GGUUUUAGAGGAAAUCGUATT against Arl6ip4, the z-score is inactive: 0.296.

In the case of CCCGGAUAUCCUGUGUCUUTT against Angel1, the z-score was inactive: 0.0229.

As for GCUUGUCAAAUAAACCAAUTT against Vdr, the z-score was inactive: -0.86.

On to GGCGGUUAGACAUUAUGGATT against Plac9a, for which the z-score is inactive: 1.25.

Regarding CGACCUAAUCACUCAGCUUTT against Tubgcp2, the z-score is inactive: 1.24.

In the case of GGUACUGGACCAAAUUGCUTT against Ppp1r15b, the z-score is active: 2.26.

For the sequence GGUGACAAACUUGAAGACCTT against Entr1, the z-score was inactive: 1.98.

As to GGCCAGACACCAACAGAAATT against Adam23, the z-score is inactive: -0.985.

For GGUUUACGAAUUCUAUCCATT against Lrtm2, the z-score was inactive: 1.19.

For GCAAAAACGCAAGAUCUUCTT against Zfand2b, the z-score is inactive: -0.201.

With GGCUUUUGAUCUUAUUGAGTT against Kpna1, the z-score is inactive: -1.04.

Regarding GCUCAAGUUAAUCUGUUGUTT against Ywhae, the z-score is inactive: 0.962.

Turning to CCUCAAUGGUAGGUAAUUUTT against Olfr1090, the z-score was inactive: -0.466.

Regarding GGAGAAGGAUUAUACCAGUTT against Rfesd, the z-score is active: 2.2.

Turning to GGACAGGAGAGUUAUUUAATT against Btla, the z-score was inactive: 1.02.

On to GGAGCGAUUUGAUGAUAUGTT against Ppp4r3a, for which the z-score is inactive: -0.755.

On to GCCACUAAGAAUCAGACAUTT against Ryr1, for which the z-score is inactive: -0.382.

On to GGAUGCUGUUUCCAAAGAATT against Ssr3, for which the z-score is inactive: 0.61.

In the case of GAUCCAGGAUAAAGAGGGCTT against Ubb, the z-score was inactive: -0.0113.

Take “GGAGAUUGAGGAAUCAUCATT against Vmn2r-ps54”: the z-score was inactive: -1.24.

On to GGGUGACCCAGAAGAAAUCTT against Gcnt1, for which the z-score was inactive: -0.793.

Take GCCUCAUCGUCAUCGCCAATT against Gpbar1: the z-score was inactive: -0.897.

For the sequence GGCUCUAUAUCCAGCAGCATT against Srst, the z-score is inactive: -1.1.

For GGACUAGAAACAAUGUCAATT against St3gal6, the z-score was inactive: -1.56.

Turning to GGUAUGGAUCUUUCUGAUATT against Rif1, the z-score was inactive: -1.07.

As for GGGAUAUCAAAGCAAAAAUTT against Rab8a, the z-score was inactive: -0.578.

On to GGGAAACAUAUGGUUUUGCTT against Iqcj, for which the z-score is inactive: 1.02.

Take GGACCUGAUCUUCAGGUUUTT against Gpc5: the z-score is inactive: 1.73.

For GCAGACGGUGGCAUAUUCUTT against Rfx4, the z-score is inactive: 0.247.

For GGUGGUAUUGAAAAGGAAATT against Ankrd13b, the z-score is inactive: 0.767.

In the case of GCUUGUUACAGAUGAAUGUTT against Nt5c3, the z-score is inactive: 1.46.

In the case of GGUCAGACAGAGUCACUGATT against Magea2, the z-score is inactive: 0.742.

With GGCUUCUUGUCCAUGCAAATT against N4bp3, the z-score is inactive: -0.579.

For GGCAGAAUUUUCCAACUGATT against Spata20, the z-score is inactive: 0.344.

Regarding GGCAUUUUCGUAUAGUUACTT against B3gnt9, the z-score was inactive: 0.81.

Take GGGAAUUUGGUAUCAAUUUTT against Epgn: the z-score is inactive: 1.7.

In the case of GCAGGGUACUGGCUAAAUATT against Cd40, the z-score was active: 2.93.

Take CCUGACCAUACUAAUAAAUTT against Rala: the z-score was inactive: -1.06.

As to GGGUCUAGCAGAUUACAAATT against Gjb6, the z-score was inactive: 1.38.

CCUCAGUUUGAACUUGAGATT against Traf3ip2: the z-score is inactive: 0.723.

On to GGAUGUCUUACCAUGGGAATT against Bhlha9, for which the z-score is inactive: 0.193.

GCUUACAGCACAACAACAUTT against Ubap1: the z-score is inactive: -0.00967.

As to GGGAAGGUGGCCUACAUCATT against Necap2, the z-score was inactive: 1.82.
